Drawing on article PMC7333352, this text covers binding for two substances.

The target in test [1] is T1, GFP-VP122 (Singapore grouper iridovirus (SGIV)) (UniProt Q5YFE3).
T1 sequence: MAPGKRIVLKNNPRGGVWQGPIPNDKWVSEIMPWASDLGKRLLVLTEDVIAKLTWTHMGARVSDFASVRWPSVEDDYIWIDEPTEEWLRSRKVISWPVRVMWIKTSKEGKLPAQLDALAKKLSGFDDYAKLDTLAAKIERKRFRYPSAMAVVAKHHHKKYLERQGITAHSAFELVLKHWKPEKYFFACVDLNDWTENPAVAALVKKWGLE
The test is described as follows: co-IP; GS cells co-transfected with HA-Atg5 or HA-LC3 and a GFP fusion, lysed 36 h after co-transfection in IP lysis buffer with protease inhibitors; anti-GFP on Dynabeads Protein G; blots with anti-GFP and anti-HA.

Test [2] addresses T2, GFP-VP132 (Singapore grouper iridovirus (SGIV)) (UniProt Q5YFD3).
T2 sequence: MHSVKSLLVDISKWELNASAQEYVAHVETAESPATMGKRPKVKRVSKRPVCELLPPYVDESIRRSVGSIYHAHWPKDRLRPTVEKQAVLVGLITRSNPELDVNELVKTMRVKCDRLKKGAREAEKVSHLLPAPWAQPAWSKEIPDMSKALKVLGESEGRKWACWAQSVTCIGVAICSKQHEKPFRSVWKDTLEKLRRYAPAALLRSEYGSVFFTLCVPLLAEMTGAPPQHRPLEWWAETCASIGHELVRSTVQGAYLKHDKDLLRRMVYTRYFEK
The test is described as above.

Results are given in words; binding and its absence hold for the method and conditions named. Binding seen in cells or lysates may run through a third protein. Binding can be weak; no strength is given. Tags and fused reporters may be left off the sequences shown.

As for HA-Atg5, the binding result in test [1] and in test [2] was “binds” each time.
Turning to HA-LC3, the binding result in test [1] and in test [2] was “no binding” throughout.
